# The other results are listed elsewhere or left out. These are further read-outs of the screen, such as a control signal, another cell line or another target. No call is given for them. Compounds called inactive in the main read-out are mostly missing here. The note in brackets gives the kind of curve behind each potency; many fits are weak.
# Assay: qHTS Assay for Modulators of Lamin A Splicing
# Conditions: HeLa LMNA splicing GFP/RFP minigene ratio, 48 h
# In short: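 S3 HeLa stable clones carrying a lamin A-EGFP splicing minigene plus DsRed2 were seeded at 600 cells/well in Opti-MEM with 2% FBS, pin-dosed and incubated 48 h at 37°C. Acumen cytometry (488 nm) gave the GFP/RFP total-intensity ratio.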
# [1] = measured here: RFP viability control channel
# [2] = measured here: GFP splicing reporter channel
SMILES,AC50 [1],AC50 [2]
Cc1sc2nc(C3CC3)nc(SCC(=O)N3c4ccccc4CC3C)c2c1C (stereo not given),"4.47 µM [rising, single point]",–
Cn1nc(-c2ccc(Cl)cc2)c2cc(C(=O)NCCCN3CCOCC3)sc21,"35.5 µM [rising, single point]",–
O=C(c1c(O)c2ccccc2oc1=O)C1CCC1,"12.6 µM [rising, single point]",–
CC(C)c1cc(C(=O)N2CCCC(CCC(=O)NCc3ccccc3F)C2)n(C)n1 (stereo not given),"6.31 µM [falling, partial curve, poor fit]",–
Cc1ccc(C(=O)C(c2ccccc2)N2Cc3ccccc3C2=N)cc1 (stereo not given),"5.01 µM [rising, single point]","35.5 µM [falling, single point]"
COCCSc1nnc(NC(=O)C2CC(=O)N(c3ccc(Cl)cc3)C2)s1 (stereo not given),"0.355 µM [falling, partial curve]","4.47 µM [falling, partial curve]"
O=C1CSC2(CCN(CCCN3c4ccccc4Sc4ccc(Cl)cc43)CC2)N1,"10 µM [falling, partial curve]","17.8 µM [rising, single point]"
CCCC(=O)OCCNc1cc(SCc2ccco2)c2nonc2c1[N+](=O)[O-],"17.8 µM [falling, partial curve]","20 µM [falling, partial curve]"
COc1ccc(C(=O)N/N=C/c2c(CO)cnc(C)c2O)cc1,–,"31.6 µM [falling, single point]"
COc1ccc(NS(=O)(=O)c2ccc(Br)s2)cc1OC,"8.91 µM [rising, partial curve]","4.47 µM [rising, single point]"
C=CCN1C(=O)C(CC(=O)Nc2ccc(OC)cc2)N(Cc2ccco2)C1=S (stereo not given),–,"22.4 µM [rising, single point]"
COc1cc(C=NCC2OCCc3ccccc32)cc(OC)c1 (stereo not given),–,"0.1 µM [rising, full curve]"
CCOC(=O)C1C(c2cc(OC)c(OC)c(OC)c2)NC(=S)NC1(O)C(F)(F)F (stereo not given),"0.00447 µM [falling, full curve, poor fit]",–
O=S(=O)(c1ccc(Cl)s1)N1CCN(Cc2ccccc2)CC1,"14.1 µM [rising, single point]","20 µM [rising, single point]"
COc1cc(Cl)c(C)cc1NC(=S)NN,"14.1 µM [rising, single point]",–
COc1cc2ccc(=O)oc2cc1O,–,"0.0631 µM [falling, full curve, poor fit]"
CCCn1nnc(NC(=O)COc2ccc(C3CCCCC3)cc2)n1,–,"35.5 µM [rising, single point]"
O=C(Nc1ccc2c(c1)CCC2)c1cc(S(=O)(=O)Nc2ccc(F)cc2)c(Cl)cc1Cl,"5.62 µM [rising, full curve, poor fit]","17.8 µM [falling, single point]"

SMILES,AC50 [1],AC50 [2]
Cc1cc(/C=N\NC(=O)COc2cccc3cccnc23)c(C)n1-c1ccc(Br)cc1,"12.6 µM [rising, partial curve]","12.6 µM [rising, partial curve]"
COc1cc(NS(=O)(=O)c2ccc(N)cc2)nc(OC)n1,"0.00178 µM [rising, full curve, poor fit]","0.000708 µM [rising, full curve, poor fit]"
CCOC(=O)CC(=O)CSc1nc2c(sc(=S)n2-c2ccc(OCC)cc2)c(=O)[nH]1,"2.82 µM [falling, partial curve]","1.58 µM [falling, partial curve]"
Cc1ccc(NC2=C(Cl)C(=O)OC2NC(=O)c2ccccc2)cc1 (stereo not given),"35.5 µM [rising, single point]",–
CC[N+](CC)(CC(=O)Nc1c(C)cccc1C)Cc1ccccc1,"0.00447 µM [falling, full curve, poor fit]","0.0282 µM [falling, full curve, poor fit]"
CC(C)OC(=O)c1cc2c(ccn2C)n1CC(=O)N(Cc1ccccc1)c1ccc(F)cc1,"11.2 µM [rising, partial curve]",–
CCC(C)c1c(O)nc(SCC(=O)c2ccccc2)[nH]c1=O (stereo not given),"11.2 µM [rising, single point]",–
CCOc1cc(/C=C2\SC(=N)N(c3nonc3N)C2=O)ccc1OCCN1CCOCC1,–,"12.6 µM [falling, partial curve, poor fit]"
O=c1c(-c2ccc(F)cc2)nc2cnc(N3CCNCC3)nc2n1-c1ccccc1,"22.4 µM [falling, single point]","12.6 µM [falling, partial curve, poor fit]"
O=C(O)CCN1C(=O)c2ccc(NC(=O)c3ccco3)cc2C1=O,–,"0.0224 µM [falling, full curve, poor fit]"
CCN(CC)c1nc2ccccc2[nH]1,"15.8 µM [falling, single point]","14.1 µM [falling, single point]"
Cc1oncc1-c1csc(-c2ccccc2Cl)n1,"20 µM [rising, partial curve]","35.5 µM [rising, single point]"
CC(C)n1c(SCC(=O)Nc2nc3c(s2)CCCC3)nc2c1c(=O)n(C)c(=O)n2C,"35.5 µM [rising, single point]",–
O=C1CCC(=O)N1c1ccc(NC2CCN(Cc3ccccc3)CC2)c([N+](=O)[O-])c1,–,"5.62 µM [falling, single point]"
CCOC(=O)c1cc(-c2ccccc2)n(CC(=O)Nc2ccc(CC)cc2)c1C,"2.51 µM [falling, single point]",–
COc1c(C)cccc1C(=O)NC(=S)Nc1cccc2nsnc12,"35.5 µM [falling, single point]","31.6 µM [falling, single point]"
Cc1ccc(N2CCN(S(=O)(=O)c3c(C)[nH]c(=O)[nH]c3=O)CC2C)cc1 (stereo not given),"0.0316 µM [falling, full curve, poor fit]",–

# Looked up one by one from above:
SMILES,AC50 [1],AC50 [2]
CCOC(=O)CC(=O)CSc1nc2c(sc(=S)n2-c2ccc(OCC)cc2)c(=O)[nH]1,"2.82 µM [falling, partial curve]","1.58 µM [falling, partial curve]"
CC(C)c1cc(C(=O)N2CCCC(CCC(=O)NCc3ccccc3F)C2)n(C)n1 (stereo not given),"6.31 µM [falling, partial curve, poor fit]",–

# Source: PubChem BioAssay AID1487 (National Center for Advancing Translational Sciences (NCATS), 2009)
